This assay can be described thus: qHTS Assay for Lipid Storage Modulators in Drosophila S3 Cells.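 As to cell number change: cells counted by Cell Tracker Red CMTPX staining in the red channel.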 The settings on record: BODIPY lipid droplet fluorescence, 18-24 h; for cell number change: measured here: cell count max response, cells fed with added oleic acid. The essentials:
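Drosophila S3 cells loaded with oleic acid (400 uM, as added) and compounds at several concentrations; lipid droplets imaged by 488-nm laser-scanning cytometry, 500–530 nm intensity and object ratio to cell channel. Percent activity normalized to 20 uM Triacsin C.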
(In general: Quantitative high-throughput screening tests each substance at several concentrations.)

Where [1] appears, read: measured here: cell number channel AC50, cells fed with added oleic acid.
Where [2] appears, read: measured here: lipid fluorescence (Fed channel) AC50, cells fed with added oleic acid.

The other results are listed elsewhere or left out. Shown are side measurements of this screen, not its main read-out; they come without a call. The list favours compounds with an active or inconclusive main result. Potencies come from curve fits of mixed quality, noted in brackets.

Usually AC50 stands for the concentration giving half of the maximal activity seen. A low value points to activity at low concentration. As for `CC(=O)c1c(C)[nH]c(C(=O)Nc2ccc(C)c(S(=O)(=O)N(C)C)c2)c1C`, the cell number change stood at 2.85%. Further, the AC50 under setting [1] is 6.51 µM [falling, single point].

As for `COc1ccc(CCNC(=O)CSc2cn(Cc3ccccc3)c3ccccc23)cc1OC`, the cell number change is -35.7%. Under setting [1], the AC50 is 8.2 µM [falling, partial curve]. For the same compound, the AC50 under setting [2] was 8.2 µM [falling, partial curve, poor fit]. On to `O=C(CN1C(=O)NC(c2ccccc2)(c2ccccc2)C1=O)Nc1ccc2[nH]c(=O)[nH]c2c1`, for which the cell number change is -44.9%. The AC50 under setting [1] is 29.1 µM [falling, single point]. `CCOC(=O)NC(=O)CN1C(=O)NC(C)(c2ccccc2)C1=O` (configuration not stated): the cell number change was 45.8%. For the same compound, the AC50 under setting [1] was 29.1 µM [rising, single point]. On to `CCOC(=O)CNC(=O)Nc1nnc(-c2ccc(OCC)cc2)o1`, for which the cell number change is -1.88%. Also, under setting [2], the AC50 is 2.31 µM [rising, single point]. As for `COc1ccccc1N(C)S(=O)(=O)c1ccc(C(=O)OCC(=O)Nc2ccc(C(N)=O)cc2)cc1`, the cell number change was -13.6%. In addition, under setting [2], the AC50 is 10.3 µM [falling, partial curve, poor fit]. Turning to `Cc1nc2c(Cl)cc(Cl)cc2[nH]1`, the cell number change was -21.3%. In addition, under setting [2], the concentration at half-maximal activity (AC50) is 0.517 µM [falling, full curve]. Turning to `COc1ccc(-n2nc(C(=O)NCC(=O)NCCc3ccc(OC)c(OC)c3)c3ccccc3c2=O)cc1Cl`, the cell number change was -6.35%. Besides, the AC50 under setting [2] was 29.1 µM [falling, single point].

Take `Cc1c(Cc2ccccc2)c(NCCN(C)C)n2c(nc3ccccc32)c1C#N`: the cell number change is 12.4%. Also, the AC50 under setting [2] was 1.84 µM [rising, full curve, poor fit]. Take `CC(C)C1(CCNC(=O)c2cccs2)CCOC(C)(C)C1` (configuration not stated): the AC50 under setting [2] was 29.1 µM [falling, single point]. In the case of `COc1ccc(CCNC(=O)Cn2ccc3c(OC)cccc3c2=O)cc1OC`, the cell number change is -51.1%. For the same compound, the AC50 under setting [1] was 16.4 µM [falling, partial curve, poor fit]. For the same compound, the AC50 under setting [2] was 0.82 µM [falling, full curve]. In the case of `O=C(Nc1ccc(OC(F)(F)F)cc1)C1CCCN(S(=O)(=O)c2cccnc2)C1` (configuration not stated), the cell number change is -11.5%. Besides, the AC50 under setting [1] was 0.461 µM [falling, full curve, poor fit]. As for `COc1ccccc1C(CNC(=O)c1cccc(S(=O)(=O)Nc2ccc(C)cc2)c1)N(C)C` (configuration not stated), the cell number change was determined as 30.4%. For the same compound, the AC50 under setting [1] is 0.103 µM [rising, full curve, poor fit]. Moreover, the AC50 under setting [2] was 29.1 µM [rising, single point].

As for `CC(CNC(=O)COc1ccc2c(c1)OCO2)c1ccccc1` (configuration not stated), the cell number change is -7.34%. Under setting [2], the AC50 was 0.0291 µM [rising, full curve, poor fit]. Consider `COc1ccc(/C=C(/NC(=O)c2ccccc2)C(=O)NC2CCS(=O)(=O)C2)cc1` (configuration not stated), for which the cell number change is -9.18%. The AC50 under setting [2] is 0.651 µM [falling, full curve, poor fit]. For the compound `C(=N\N1CCN(Cc2cccc3ccccc23)CC1)/c1cccs1`, the cell number change came to 32%. Moreover, under setting [1], the AC50 is 23.1 µM [rising, single point]. On to `Cc1ccc(S(=O)(=O)c2c(COC(=O)c3ccc(Cl)cc3)c(-c3ccccc3)nn2C)cc1`, for which the cell number change was -13.3%. Besides, the AC50 under setting [2] was 1.3 µM [rising, full curve, poor fit].

As for `O=C(OCCN=C1NS(=O)(=O)c2ccccc21)C1CC(=O)N(c2ccc3ccccc3c2)C1` (configuration not stated), the cell number change came to 26.4%. In addition, under setting [2], the AC50 is 18.4 µM [rising, single point].

As to `Clc1ccc(C2CC(c3ccccc3)Nc3ncnn32)cc1` (configuration not stated), the cell number change came to 51.3%. Under setting [1], the AC50 was 1.3 µM [rising, full curve]. Further, the AC50 under setting [2] was 0.366 µM [rising, full curve]. For `O=C1CCCc2c1nc(-c1ccccc1)n2O`, the cell number change was -1.02%. For `CC(C)N1C(=O)N(c2cccc(Cl)c2)C(C)(O)CC1(C)C` (configuration not stated), the cell number change is -4.65%. Further, under setting [2], the half-maximal activity concentration (AC50) is 1.3 µM [falling, full curve]. In the case of `O=C(N/N=C/C(c1ccccc1)c1ccccc1)c1ccccc1F`, the cell number change is -41.5%. The AC50 under setting [1] was 10.3 µM [falling, single point]. `CCN(CC)CCCNC(=O)c1oc2ccc(S(=O)(=O)N3CC(C)CC(C)C3)cc2c1C` (configuration not stated): the cell number change is -4.96%. The half-maximal activity concentration (AC50) under setting [2] is 29.1 µM [rising, single point]. With `CCOC(=O)c1sc(NC(=O)CSc2nnc(C)s2)c(C(=O)OCC)c1C`, the cell number change was -5.85%. Besides, under setting [2], the AC50 was 2.06 µM [rising, partial curve, poor fit]. For the compound `O=C(CNC(=O)c1cccc(F)c1)N/N=C/c1cc(Br)ccc1OC(=O)/C=C/c1ccco1`, the cell number change was -0.392%. Further, under setting [2], the AC50 was 3.66 µM [falling, partial curve, poor fit]. For the compound `O=C(CCn1c(=O)oc2ccccc21)NCCCN1CCCC1=O`, the cell number change was -42.2%. Also, the AC50 under setting [1] is 5.8 µM [falling, full curve].

Take `O=C(NC1CC1)C1CCN(C2CCN(C(=O)c3ccc4cccc(F)c4n3)CC2)CC1`: the cell number change was -7.04%. Also, the AC50 under setting [2] is 4.11 µM [falling, single point].

Take `CN(C)C(=O)/C(=C/c1ccc(-c2cccc([N+](=O)[O-])c2)o1)NC(=O)c1ccccc1`: the cell number change is -26.4%. Still for that read-out and setting: in the case of `Cc1ccc(S(=O)(=O)N2CCC(C)CC2)cc1` it was -9.94%. For `COc1ccc(N2CCN(C(=O)Cc3coc4cc(C)ccc34)CC2)cc1`, the AC50 under setting [1] is 0.058 µM [falling, full curve, poor fit]. Regarding `COc1ccc(CNC(=O)C(=O)NCCC2CCCCN2S(=O)(=O)c2cccs2)cc1` (configuration not stated), the cell number change was -33.3%. Moreover, the AC50 under setting [1] was 16.4 µM [falling, single point]. For the same compound, the AC50 under setting [2] was 29.1 µM [falling, single point]. Take `O=C(CCCCCn1c(=O)[nH]c2ccsc2c1=O)NCc1ccc2c(c1)OCO2`: the cell number change is -11.5%. For the same compound, the AC50 under setting [2] is 8.2 µM [falling, partial curve]. With `Cc1ccc2c(c1)-c1cc(C)nn1C(c1sccc1C)N2` (configuration not stated), the cell number change was -24.3%. On to `O=C(NCc1ccccc1)[C@H]1C[C@@H]1[C@H](NP(=O)(c1ccccc1)c1ccccc1)c1ccccc1`, for which the cell number change came out at 44.9%. Also, the AC50 under setting [1] was 0.461 µM [rising, full curve]. The AC50 under setting [2] was 7.31 µM [falling, single point].

`COc1ccc(C(=O)NC23CC4CC(CC(C4)C2)C3)cc1OC`: the cell number change was -8.21%.

`COc1cccc(NC(=O)CN(C)C(C)C(=O)Nc2cc([N+](=O)[O-])ccc2Cl)c1` (configuration not stated): the cell number change is 45.6%. Besides, under setting [1], the AC50 was 20.6 µM [rising, single point]. Take `Cc1ccc(C(=O)c2c3ccccc3[n+]([O-])n2CCC(N)=O)cc1`: the cell number change was 5.99%. The AC50 under setting [2] was 6.51 µM [falling, single point].

In the case of `Cc1cc(C)n(C(=O)c2ccc([N+](=O)[O-])cc2Cl)n1`, the cell number change was 9.09%. For the same compound, the AC50 under setting [2] is 0.13 µM [rising, full curve, poor fit]. In the case of `Cc1ccsc1C(=O)OC(C)C(=O)NC1CCCCC1C` (configuration not stated), the cell number change was -4.42%. `C=CCn1c(SCC(=O)N(C)C2CCS(=O)(=O)C2)nnc1-c1ccncc1` (configuration not stated): the cell number change came to 38.2%. Moreover, the AC50 under setting [1] was 0.231 µM [rising, full curve, poor fit]. Besides, under setting [2], the AC50 was 6.51 µM [falling, single point].

On to `CCn1ncc(C2=NOC(C(=O)N3CCC(C(N)=O)CC3)C2)c1C` (configuration not stated), for which the cell number change was -6.49%. Also, under setting [2], the AC50 was 0.731 µM [falling, single point]. Regarding `NS(=O)(=O)c1ccc(S(=O)(=O)N(CCc2ccccc2)Cc2ccccn2)cc1`, the cell number change is -11.1%. The AC50 under setting [2] was 29.1 µM [rising, single point]. For `O=C(CN1CCC(NC(=O)Cc2ccccc2)CC1)Nc1ccccc1Br`, the cell number change amounted to 23.5%. Further, the AC50 under setting [2] was 4.61 µM [rising, single point]. `O=S(=O)(NCCN1CCCC1)c1cccc2cccnc12`: the cell number change was 0.759%.

`COc1ccc(CCNC(=O)CN(c2ccccc2OC)S(C)(=O)=O)cc1`: the cell number change was -9.4%. The AC50 under setting [1] is 1.64 µM [falling, partial curve, poor fit]. Besides, the AC50 under setting [2] was 23.1 µM [falling, partial curve]. On to `CCCCP(=O)(CCCC)Cc1ccccc1O`, for which the cell number change is -22.8%. Also, the AC50 under setting [2] is 0.164 µM [falling, full curve]. As to `CCC(=O)N1N=C(c2ccc(C)o2)CC1c1ccc(N(C)C)cc1` (configuration not stated), the cell number change was -7.23%. Moreover, the AC50 under setting [1] is 6.51 µM [rising, single point]. As for `Cc1cc(C)c(C)c(C(=O)c2ccccc2C(=O)O)c1C`, the cell number change came out at 33.5%. The AC50 under setting [1] was 4.61 µM [rising, partial curve, poor fit]. Take `COc1cc(CSC)nc(-c2ccccc2)n1`: the cell number change came to 7.73%. For the compound `COc1ccc(S(=O)(=O)N2CCCCC2)cc1NC(=O)c1cnc(C)cn1`, the cell number change is 19.2%. For the same compound, the AC50 under setting [2] was 0.731 µM [falling, partial curve].

On to `O=C(c1cc2ccccc2o1)N1CCN(c2ccccn2)CC1`, for which the cell number change was -1.08%. Take `CCOC(=O)CSc1ncnc2c1nnn2-c1ccc(F)cc1`: the cell number change is -0.418%. Moreover, under setting [2], the AC50 was 0.517 µM [falling, full curve, poor fit]. As for `CNc1nc(N)c([N+](=O)[O-])c(Nc2cccc(F)c2)n1`, the cell number change was 25%.

Consider `CN1C=C/C(=C\c2cc[n+](C)c3ccccc23)c2ccccc21`, for which the cell number change is -80.1%. The AC50 under setting [1] was 9.2 µM [falling, partial curve]. In addition, the AC50 under setting [2] is 7.31 µM [falling, partial curve]. As for `O=C(CCCC(=O)c1ccc(O)cc1)c1ccc(O)cc1`, the cell number change was 3.83%. For the same compound, the AC50 under setting [2] was 29.1 µM [rising, single point].

Take `COC(=O)/C=C(\Oc1ccccc1)C1(O)CCCCC1`: the cell number change is -13.7%. Under setting [2], the AC50 is 0.00517 µM [falling, full curve, poor fit]. With `COc1ccc(S(=O)(=O)Nc2c(C)n(C)n(-c3ccccc3)c2=O)cc1`, the cell number change turned out to be 21.9%. The AC50 under setting [1] is 1.64 µM [falling, partial curve, poor fit]. As for `COc1cccc(NC(=O)c2ccccc2-c2nc(-c3cccc(C)c3)no2)c1`, the cell number change was determined as 4.33%. As to `CC1(C)CC(NS(=O)(=O)OCC(Cl)(Cl)Cl)c2cc(C#N)ccc2O1` (configuration not stated), the cell number change amounted to 10.7%.

Consider `COc1ccc(CNC(=O)COC(=O)c2c(C)nn(-c3ccccc3)c2C)cc1OC`, for which the cell number change worked out at 8.42%. For `CCN1CCN(CCCNC(=O)c2ccc(/C=C3/Oc4ccccc4N(Cc4cccc(C)c4)C3=O)cc2)CC1`, the cell number change was found to be 20.3%. Further, the AC50 under setting [1] was 3.66 µM [rising, single point]. Moreover, the AC50 under setting [2] is 23.1 µM [rising, partial curve].

For the origin of these results see PubChem BioAssay AID2685 (National Center for Advancing Translational Sciences (NCATS), 2010).
